According to article PMC8589989:
Results are given in words; binding and its absence hold for the method and conditions named. Binding seen in cells or lysates may run through a third protein. Some entries that bind do so weakly or less than the wild type.

Chains of the proteins cited; added tags and fusions are not shown.
UniProt P09874: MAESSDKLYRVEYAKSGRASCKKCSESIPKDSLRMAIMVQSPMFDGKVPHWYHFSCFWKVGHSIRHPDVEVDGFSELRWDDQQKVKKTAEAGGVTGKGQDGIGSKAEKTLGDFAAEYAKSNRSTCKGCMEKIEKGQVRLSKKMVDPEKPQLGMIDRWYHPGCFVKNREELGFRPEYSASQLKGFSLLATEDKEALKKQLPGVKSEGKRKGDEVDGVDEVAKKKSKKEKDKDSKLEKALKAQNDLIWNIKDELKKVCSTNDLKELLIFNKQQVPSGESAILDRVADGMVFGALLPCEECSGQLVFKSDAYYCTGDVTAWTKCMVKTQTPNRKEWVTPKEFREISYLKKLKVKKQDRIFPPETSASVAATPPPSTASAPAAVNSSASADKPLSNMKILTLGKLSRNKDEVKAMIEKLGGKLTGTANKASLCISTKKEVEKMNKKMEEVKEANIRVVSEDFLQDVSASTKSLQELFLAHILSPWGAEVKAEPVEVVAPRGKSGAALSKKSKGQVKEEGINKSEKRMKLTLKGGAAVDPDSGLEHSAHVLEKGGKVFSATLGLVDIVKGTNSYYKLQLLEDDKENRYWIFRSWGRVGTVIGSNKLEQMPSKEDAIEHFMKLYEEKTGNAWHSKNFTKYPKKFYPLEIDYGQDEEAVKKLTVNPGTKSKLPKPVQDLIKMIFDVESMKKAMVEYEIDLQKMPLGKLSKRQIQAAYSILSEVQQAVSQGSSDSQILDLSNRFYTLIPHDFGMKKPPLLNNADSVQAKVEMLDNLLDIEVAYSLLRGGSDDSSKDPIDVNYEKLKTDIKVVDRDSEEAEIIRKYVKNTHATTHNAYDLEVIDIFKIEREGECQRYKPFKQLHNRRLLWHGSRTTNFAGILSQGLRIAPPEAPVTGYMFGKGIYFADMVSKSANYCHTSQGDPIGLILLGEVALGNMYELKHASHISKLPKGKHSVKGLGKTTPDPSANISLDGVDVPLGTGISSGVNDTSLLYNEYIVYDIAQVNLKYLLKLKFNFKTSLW

Molecular target: GFP-PARP1 (UniProt P09874)
Assay: pull-down; GFP-Trap pull-down of GFP fusion proteins from HeLa lysate (EBC buffer, benzonase), western blot for ZNF384

B1: endogenous ZNF384 (HeLa) (protein, UniProt Q8TF68 1-577)
chain: MEESHFNSNPYFWPSIPTVSGQIENTMFINKMKDQLLPEKGCGLAPPHYPTLLTVPASVSLPSGISMDTESKSDQLTPHSQASVTQNITVVPVPSTGLMTAGVSCSQRWRREGSQSRGPGLVITSPSGSLVTTASSAQTFPISAPMIVSALPPGSQALQVVPDLSKKVASTLTEEGGGGGGGGGSVAPKPPRGRKKKRMLESGLPEMNDPYVLSPEDDDDHQKDGKTYRCRMCSLTFYSKSEMQIHSKSHTETKPHKCPHCSKTFANSSYLAQHIRIHSGAKPYSCNFCEKSFRQLSHLQQHTRIHSKMHTETIKPHKCPHCSKTFANTSYLAQHLRIHSGAKPYNCSYCQKAFRQLSHLQQHTRIHTGDRPYKCAHPGCEKAFTQLSNLQSHRRQHNKDKPFKCHNCHRAYTDAASLEVHLSTHTVKHAKVYTCTICSRAYTSETYLMKHMRKHNPPDLQQQVQAAAAAAAVAQAQAQAQAQAQAQAQAQAQAQASQASQQQQQQQQQQQQQQQQPPPHFQSPGAAPQGGGGGDSNPNPPPQCSFDLTPYKTAEHHKDICLTVTTSTIQVEHLASS
**Q.** B1 was tested. Which binding did it give?
**A.** binds
